## Results from one PubChem assay

From PubChem BioAssay record AID1845223 (NCATS, 2023).

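Compounds are checked for redox cycling by the fluorescent signal from Amplex Red with HRP and DTT, with no cells involved, read after about 45 minutes in total.
Each compound was tested as a concentration series, mostly reaching 53.8 µM at the top.
The number is the fitted potency (AC50), where a lower value means stronger redox-cycling activity.
Under the general rule, inconclusive means a small, poorly fitted or top-dose-only effect; all rows here are inconclusive.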

Values are in µM.
Every entry below has the call inconclusive.
These entries are mostly ones the record files as inconclusive; other results of the assay are not listed here.
A potency from a partial, single-point or poor curve is only a rough figure.
Some entries filed as inconclusive have a full curve.

| compound | Potency (µM) | curve as filed |
|---|---|---|
| `CCN1CCN(C(=O)N[C@@H](C(=O)N[C@@H]2C(=O)N3[C@@H]2SC(C)(C)[C@@H]3C(=O)O)c2ccccc2)C(=O)C1=O` | 29.93 | activator, partial curve, poor fit |
| `CNC(=O)Oc1ccc2c(c1)[C@]1(C)CCN(C)[C@@H]1N2C` | 26.68 | activator, single point |
| `Cc1cc(C(=O)N2Cc3cnn(C)c3Nc3ccccc32)ccc1CNC(=O)N1CCN(Cc2cc(O)cc(O)c2)CC1` | 4.228 | activator, full curve |
| `CCC(C)/C=C(C)/C=C/C(=O)C1CCC(O)C(C)(O)C1=O` (stereo not given) | 23.78 | activator, single point |
| `COc1ccc2c(c1)C=C1Cn3c-2c(C2CCCCC2)c2ccc(cc23)C(=O)NS(=O)(=O)N(C)CCOCCN(C)C1=O` | 2.668 | activator, partial curve |
| `CCC(C)/C=C(C)/C=C/C1=CC2=C(Cl)C(=O)C(C)(OC(C)=O)C(=O)C2=CN1C1CCCCN(C(CCC(N)=O)C(=O)O)C1=O` (stereo not given) | 7.931 | activator, single point |
| `C=CC/C=C\C/C=C\CCCCCCCc1cccc(O)c1C(=O)O` | 18.49 | activator, single point |
| `COc1cc(C)c(C(=O)NC2C(C)OC(OC3CCC(C)C4C3C=C(C)C3/C(C)=C\CC/C(C)=C/C5(C)C=C(C(=O)O)C(C)CC56OC(=O)/C(=C(\O)C34C)C6=O)C(O)C2(C)O)c(O)c1` (stereo not given) | 1.791 | activator, partial curve, poor fit |
| `CN1CCN(C(=O)c2ccc3cc(CCNc4ncnc5ccc(C#N)cc45)ccc3c2)CC1` | 5.973 | activator, partial curve |
| `CC(C)=CCC[C@](C)(O[C@@H]1O[C@H](CO[C@@H]2OC[C@@H](O)[C@H](O)[C@H]2O)[C@@H](O)[C@H](O)[C@H]1O)[C@H]1CC[C@]2(C)[C@@H]1[C@H](O)C[C@@H]1[C@@]3(C)CC[C@H](O[C@@H]4O[C@H](CO)[C@@H](O)[C@H](O)[C@H]4O)C(C)(C)[C@@H]3CC[C@]12C` | 5.187 | activator, partial curve, poor fit |
| `CN1CCN(c2cccc(Nc3nc4c(-c5ccc(S(C)(=O)=O)cc5)cccn4n3)c2)CC1` | 5.323 | activator, single point |

Once more, the final 2:

compound,Potency (µM),curve as filed
CC(C)=CCC[C@](C)(O[C@@H]1O[C@H](CO[C@@H]2OC[C@@H](O)[C@H](O)[C@H]2O)[C@@H](O)[C@H](O)[C@H]1O)[C@H]1CC[C@]2(C)[C@@H]1[C@H](O)C[C@@H]1[C@@]3(C)CC[C@H](O[C@@H]4O[C@H](CO)[C@@H](O)[C@H](O)[C@H]4O)C(C)(C)[C@@H]3CC[C@]12C,5.187,"activator, partial curve, poor fit"
CN1CCN(c2cccc(Nc3nc4c(-c5ccc(S(C)(=O)=O)cc5)cccn4n3)c2)CC1,5.323,"activator, single point"